Results are given in words; binding and its absence hold for the method and conditions named. For some assays here: In cells and extracts the contact can be indirect. Some entries that bind do so weakly or less than the wild type. Where a sequence is shown, tags or fusion partners need not be part of it.
T1: Ihog:RFP (wild-type Interference hedgehog tagged with RFP) (Drosophila melanogaster) (UniProt Q9VM64)
T1 sequence: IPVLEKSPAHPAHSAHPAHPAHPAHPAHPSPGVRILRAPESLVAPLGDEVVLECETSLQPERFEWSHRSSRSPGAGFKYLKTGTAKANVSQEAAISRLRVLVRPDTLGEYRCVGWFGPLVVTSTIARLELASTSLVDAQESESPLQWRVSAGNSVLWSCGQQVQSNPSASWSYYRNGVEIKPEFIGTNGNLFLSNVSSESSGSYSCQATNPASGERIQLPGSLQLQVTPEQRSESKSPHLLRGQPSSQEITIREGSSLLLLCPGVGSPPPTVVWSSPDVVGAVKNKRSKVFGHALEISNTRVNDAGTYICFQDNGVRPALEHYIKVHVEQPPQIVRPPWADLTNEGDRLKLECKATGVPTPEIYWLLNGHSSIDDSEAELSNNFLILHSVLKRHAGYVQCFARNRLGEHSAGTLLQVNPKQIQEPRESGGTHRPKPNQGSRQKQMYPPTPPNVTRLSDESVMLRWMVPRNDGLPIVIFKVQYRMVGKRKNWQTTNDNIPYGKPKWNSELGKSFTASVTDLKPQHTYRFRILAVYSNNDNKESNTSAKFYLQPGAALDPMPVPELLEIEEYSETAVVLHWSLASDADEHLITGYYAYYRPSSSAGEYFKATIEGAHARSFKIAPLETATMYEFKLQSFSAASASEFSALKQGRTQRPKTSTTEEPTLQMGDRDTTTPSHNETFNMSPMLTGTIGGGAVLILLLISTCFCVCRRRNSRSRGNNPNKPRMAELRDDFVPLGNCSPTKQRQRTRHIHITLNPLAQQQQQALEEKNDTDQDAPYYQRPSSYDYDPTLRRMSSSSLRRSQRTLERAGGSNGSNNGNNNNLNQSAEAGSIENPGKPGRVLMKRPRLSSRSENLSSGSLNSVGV

B1: Shf:V5 (wild-type Shifted/DmWif1 tagged with V5) (protein, UniProt Q9W3W5 31-456)
chain: RQQHHNRNNNNNNRRADSSSSEEGHGNTSDGLDNFADQDASFVGHGHQPRRGQRKKQQGGGGGGSGGGGGNGGGGGSRHNRNEESGISLWINEQQLKMLTALYFPQGYSERLYAIHNSRVTNDLRDTTLYNFLVIPSEVNYVNFTWKSGRRKYFYDFDRLQTMDESILKAPTLSIRKSGRIPQEQKNFSIFLPCTGNSSGTASFNVGLKIQTRHNKPLSGTPIRLNFKKECAHRGVYDIDASNPTSLTTLQECSLKCGKNGYCNEHHICKCNVGYTGQYCETAFCFPQCLNGGNCTAPSVCTCPEGYQGTQCEGGICKDKCLNGGKCIQKDKCQCSKGYYGLRCEYSKCVIPCKNEGRCIGNNLCRCPNGLRGDHCEIGRKQRSICKCRNGTCVSHKHCKCHPGFYGRHCNGRKRRHVHRNDDSKF
B2: Shf:GFP (endogenous Shf tagged with GFP, shfGFP knock-in allele) (protein, UniProt Q9W3W5 31-456)
chain: B1 chain

Key:
[1] = molecular target: T1, Ihog:RFP (wild-type Interference hedgehog tagged with RFP) (Drosophila melanogaster); experiment: co-IP
[2] = molecular target: T1, Ihog:RFP (wild-type Interference hedgehog tagged with RFP) (Drosophila melanogaster); experiment: fluorescence imaging of tissue

Binder	binding [1]	binding [2]
B1	binds	–
B2	–	binds

Source: article doi:10.1101/2025.06.04.657875
